Measurements from publication PMC6315541, “Nile Tilapia Derived Antimicrobial Peptide TP4 Exerts Antineoplastic Activity Through Microtubule Disruption” (Marine Drugs, 2018).
These are yes or no findings as the source states them, for the method shown. Binding seen in cells or lysates may run through a third protein. Here binding means that the protein was enriched with, or labelled near, the bait; the list need not be complete.

By UniProt entry, the sequences of proteins in these tests, tags left out.
UniProt Q9BQE3: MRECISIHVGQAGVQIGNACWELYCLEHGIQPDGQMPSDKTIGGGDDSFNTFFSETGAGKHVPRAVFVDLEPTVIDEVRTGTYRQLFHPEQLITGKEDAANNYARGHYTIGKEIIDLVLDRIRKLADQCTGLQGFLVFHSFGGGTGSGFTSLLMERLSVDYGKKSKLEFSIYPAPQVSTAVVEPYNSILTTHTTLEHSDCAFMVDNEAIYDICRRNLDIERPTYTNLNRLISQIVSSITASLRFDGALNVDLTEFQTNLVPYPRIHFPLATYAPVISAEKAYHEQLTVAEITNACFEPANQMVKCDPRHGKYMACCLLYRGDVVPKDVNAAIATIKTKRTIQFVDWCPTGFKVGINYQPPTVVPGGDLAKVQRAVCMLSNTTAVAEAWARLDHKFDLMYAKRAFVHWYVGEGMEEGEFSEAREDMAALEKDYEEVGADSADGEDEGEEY

Target: T1, Tilapia piscidin (TP) 4 (Nile tilapia (Oreochromis niloticus))
T1 sequence (peptide): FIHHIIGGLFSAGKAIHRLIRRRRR
Assay: affinity purification with mass spectrometry; A549 cells treated with 10 μg/mL TP4 for 3 h; lysate (1 mg; 50 mM Tris-HCl pH 8.0, 150 mM NaCl, 1% Igepal CA-630) precipitated with rabbit anti-TP4 antibody and magnetic beads; major band of about 55 kDa excised, in-gel tryptic digestion, LC-MS/MS, Mascot search; only the target purified

α-Tubulin (from UniProt Q9BQE3 1-449)
binding: binds
